Data taken from paper PMC10682000.
These are yes or no findings as the source states them, for the method shown. In cells and extracts the contact can be indirect. Some results given as binding are weak or reduced against the parent protein; the word gives no strength.

By UniProt entry, the sequences of proteins in these tests, tags left out.
UniProt P25490: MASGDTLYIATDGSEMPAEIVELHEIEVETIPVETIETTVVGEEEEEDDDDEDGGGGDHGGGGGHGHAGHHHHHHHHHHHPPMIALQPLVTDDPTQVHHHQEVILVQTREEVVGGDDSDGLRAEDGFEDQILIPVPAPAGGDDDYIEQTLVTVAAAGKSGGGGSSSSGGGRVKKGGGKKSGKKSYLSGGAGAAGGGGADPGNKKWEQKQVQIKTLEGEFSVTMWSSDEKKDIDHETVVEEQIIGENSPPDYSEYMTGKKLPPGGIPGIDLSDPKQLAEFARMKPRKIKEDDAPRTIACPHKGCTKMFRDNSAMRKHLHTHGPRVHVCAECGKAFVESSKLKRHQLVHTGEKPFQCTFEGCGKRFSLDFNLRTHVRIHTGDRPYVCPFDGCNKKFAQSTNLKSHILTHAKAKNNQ

T1: ΔNp63α (human) (UniProt Q9H3D4)
T1 sequence: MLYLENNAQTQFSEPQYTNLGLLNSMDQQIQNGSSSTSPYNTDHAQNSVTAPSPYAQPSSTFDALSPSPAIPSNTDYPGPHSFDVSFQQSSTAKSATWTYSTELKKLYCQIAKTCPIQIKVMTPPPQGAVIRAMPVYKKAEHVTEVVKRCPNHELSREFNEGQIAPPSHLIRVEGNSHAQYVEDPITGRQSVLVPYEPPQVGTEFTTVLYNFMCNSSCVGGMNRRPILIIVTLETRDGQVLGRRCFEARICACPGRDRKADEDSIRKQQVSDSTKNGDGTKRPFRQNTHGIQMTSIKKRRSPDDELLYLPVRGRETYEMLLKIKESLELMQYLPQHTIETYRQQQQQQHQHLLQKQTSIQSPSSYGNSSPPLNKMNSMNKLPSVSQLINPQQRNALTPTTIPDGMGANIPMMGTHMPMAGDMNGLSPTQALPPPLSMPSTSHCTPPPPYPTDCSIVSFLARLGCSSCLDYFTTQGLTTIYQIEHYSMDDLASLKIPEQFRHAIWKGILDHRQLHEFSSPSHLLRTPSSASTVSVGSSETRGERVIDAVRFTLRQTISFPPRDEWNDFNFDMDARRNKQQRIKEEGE


Tests used:
[1] = biological target: T1, ΔNp63α (human); assay: co-IP; whole cell lysates (RIPA lysis buffer with protease inhibitors) of RBE_vector vs. RBE_over cells; incubated with anti-ΔNp63, anti-YY1 or IgG overnight at 4 °C, protein A/G magnetic beads 1 h at room temperature, washed six times with RIPA buffer; western blot
[2] = biological target: YY1 (human (endogenous in RBE)) (UniProt P25490); assay: as above

binding [1] | binding [2] | Molecule
binds | – | YY1 (from UniProt P25490 1-414)
– | binds | ΔNp63α (protein, UniProt Q9H3D4-2 1-586) MLYLENNAQTQFSEPQYTNLGLLNSMDQQIQNGSSSTSPYNTDHAQNSVTAPSPYAQPSSTFDALSPSPAIPSNTDYPGPHSFDVSFQQSSTAKSATWTYSTELKKLYCQIAKTCPIQIKVMTPPPQGAVIRAMPVYKKAEHVTEVVKRCPNHELSREFNEGQIAPPSHLIRVEGNSHAQYVEDPITGRQSVLVPYEPPQVGTEFTTVLYNFMCNSSCVGGMNRRPILIIVTLETRDGQVLGRRCFEARICACPGRDRKADEDSIRKQQVSDSTKNGDGTKRPFRQNTHGIQMTSIKKRRSPDDELLYLPVRGRETYEMLLKIKESLELMQYLPQHTIETYRQQQQQQHQHLLQKQTSIQSPSSYGNSSPPLNKMNSMNKLPSVSQLINPQQRNALTPTTIPDGMGANIPMMGTHMPMAGDMNGLSPTQALPPPLSMPSTSHCTPPPPYPTDCSIVSFLARLGCSSCLDYFTTQGLTTIYQIEHYSMDDLASLKIPEQFRHAIWKGILDHRQLHEFSSPSHLLRTPSSASTVSVGSSETRGERVIDAVRFTLRQTISFPPRDEWNDFNFDMDARRNKQQRIKEEGE
